Values quoted from earlier work, collected in patent US20160120848A1, “SPECIFIC CANCER TREATMENT REGIMES WITH GANETESPIB” (SYNTA PHARMACEUTICALS CORP., priority 2013, published 2016).
For at least one compound, name, drawing or mass did not settle the structure.

Tested on: BCR-ABL
Conditions: cited from earlier work

COC1=C2C[C@@H](C)C[C@H](OC)[C@H](O)[C@@H](C)/C=C(\C)[C@H](OC(N)=O)[C@@H](OC)/C=C\C=C(/C)C(=O)NC(=CC1=O)C2=O [geldanamycin]
apoptosis (BCR-ABL leukemia cells): induces apoptosis
effect on BCR-ABL protein: proteasomal degradation of BCR-ABL
effect on association of BCR-ABL with Hsp90: disrupts the association of BCR-ABL with Hsp90
